Drawing on paper PMC10093973, “The RNA-Binding and RNA-Melting Activities of the Multifunctional Protein Nucleobindin 1” (International Journal of Molecular Sciences, 2023), this text covers binding for two molecules.

The target in assay [1] is NUCB1 CaBD (228-326 aa) (human) (UniProt Q02818). Description: SEC; size-exclusion chromatography of the final preparations on Superdex 200 in 150 mM NaCl, 50 mM Tris-HCl (pH 8.0); oligomeric state of each protein; both purified.
The target of assay [2] is NUCB1 ΔZ (31-320 aa) (human) (UniProt Q02818). The assay is described as above.

Results are given in words; binding and its absence hold for the method and conditions named.

B1: NUCB1 CaBD (228-326 aa) (domain or fragment, UniProt Q02818 228-326)
chain: LKEVWEELDGLDPNRFNPKTFFILHDINSDGVLDEQELEALFTKELEKVYDPKNEEDDMREMEEERLRMREHVMKNVDTNQDRLVTLEEFLASTQRKEF
Consider B1, for which the binding entry in assay [1] is given as “no binding”.

B2: NUCB1 ΔZ (31-320 aa) (domain or fragment, UniProt Q02818 31-320)
chain: RGAPNKEETPATESPDTGLYYHRYLQEVIDVLETDGHFREKLQAANAEDIKSGKLSRELDFVSHHVRTKLDELKRQEVSRLRMLLKAKMDAEQDPNVQVDHLNLLKQFEHLDPQNQHTFEARDLELLIQTATRDLAQYDAAHHEEFKRYEMLKEHERRRYLESLGEEQRKEAERKLEEQQRRHREHPKVNVPGSQAQLKEVWEELDGLDPNRFNPKTFFILHDINSDGVLDEQELEALFTKELEKVYDPKNEEDDMREMEEERLRMREHVMKNVDTNQDRLVTLEEFLAS
As to B2, the binding entry in assay [2] is reported as “no binding”.
